Test results published in publication PMC7031652.
No constants are given. Whether binding was seen depends on the method and setting. In cells and extracts the contact can be indirect.

The chains behind the UniProt entries cited, without tags or fusion partners.
UniProt A0A6G7KUU3: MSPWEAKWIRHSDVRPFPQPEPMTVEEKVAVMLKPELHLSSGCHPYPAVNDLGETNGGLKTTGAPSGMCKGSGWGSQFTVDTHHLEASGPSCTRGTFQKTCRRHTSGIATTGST
UniProt A0A6B9QR77: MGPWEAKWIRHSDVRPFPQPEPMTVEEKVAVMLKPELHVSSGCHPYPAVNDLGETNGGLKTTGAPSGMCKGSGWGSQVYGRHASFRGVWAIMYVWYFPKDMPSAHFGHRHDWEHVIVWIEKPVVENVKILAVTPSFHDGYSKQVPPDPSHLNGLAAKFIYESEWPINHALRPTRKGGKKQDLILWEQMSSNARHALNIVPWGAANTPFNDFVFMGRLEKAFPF

Key:
[1] = target: PvNLP3 (Plasmopara viticola necrosis and ethylene inducing peptide 1-like protein 3), tagged with a fluorescent protein (Plasmopara viticola); experiment: co-IP
[2] = target: PvNLP1 (Plasmopara viticola necrosis and ethylene inducing peptide 1-like protein 1), tagged with a fluorescent protein (Plasmopara viticola); experiment: co-IP

Row | Substance | binding [1] | binding [2]
1 | PvNLP1 (Plasmopara viticola necrosis and ethylene inducing peptide 1-like protein 1), tagged with a fluorescent protein (from UniProt A0A6G7KUU3 1-114) | no binding | no binding
2 | PvNLP3 (Plasmopara viticola necrosis and ethylene inducing peptide 1-like protein 3), tagged with a fluorescent protein (from UniProt A0A6B9QR77 1-223) | no binding | 
